Source: article PMC5432316
No constants are given. Whether binding was seen depends on the method and setting. Some entries that bind do so weakly or less than the wild type.

Amino acid sequences for entries named in this document (tags omitted). A change or cut given only in a name is not applied to a line headed by its entry.
UniProt P02454: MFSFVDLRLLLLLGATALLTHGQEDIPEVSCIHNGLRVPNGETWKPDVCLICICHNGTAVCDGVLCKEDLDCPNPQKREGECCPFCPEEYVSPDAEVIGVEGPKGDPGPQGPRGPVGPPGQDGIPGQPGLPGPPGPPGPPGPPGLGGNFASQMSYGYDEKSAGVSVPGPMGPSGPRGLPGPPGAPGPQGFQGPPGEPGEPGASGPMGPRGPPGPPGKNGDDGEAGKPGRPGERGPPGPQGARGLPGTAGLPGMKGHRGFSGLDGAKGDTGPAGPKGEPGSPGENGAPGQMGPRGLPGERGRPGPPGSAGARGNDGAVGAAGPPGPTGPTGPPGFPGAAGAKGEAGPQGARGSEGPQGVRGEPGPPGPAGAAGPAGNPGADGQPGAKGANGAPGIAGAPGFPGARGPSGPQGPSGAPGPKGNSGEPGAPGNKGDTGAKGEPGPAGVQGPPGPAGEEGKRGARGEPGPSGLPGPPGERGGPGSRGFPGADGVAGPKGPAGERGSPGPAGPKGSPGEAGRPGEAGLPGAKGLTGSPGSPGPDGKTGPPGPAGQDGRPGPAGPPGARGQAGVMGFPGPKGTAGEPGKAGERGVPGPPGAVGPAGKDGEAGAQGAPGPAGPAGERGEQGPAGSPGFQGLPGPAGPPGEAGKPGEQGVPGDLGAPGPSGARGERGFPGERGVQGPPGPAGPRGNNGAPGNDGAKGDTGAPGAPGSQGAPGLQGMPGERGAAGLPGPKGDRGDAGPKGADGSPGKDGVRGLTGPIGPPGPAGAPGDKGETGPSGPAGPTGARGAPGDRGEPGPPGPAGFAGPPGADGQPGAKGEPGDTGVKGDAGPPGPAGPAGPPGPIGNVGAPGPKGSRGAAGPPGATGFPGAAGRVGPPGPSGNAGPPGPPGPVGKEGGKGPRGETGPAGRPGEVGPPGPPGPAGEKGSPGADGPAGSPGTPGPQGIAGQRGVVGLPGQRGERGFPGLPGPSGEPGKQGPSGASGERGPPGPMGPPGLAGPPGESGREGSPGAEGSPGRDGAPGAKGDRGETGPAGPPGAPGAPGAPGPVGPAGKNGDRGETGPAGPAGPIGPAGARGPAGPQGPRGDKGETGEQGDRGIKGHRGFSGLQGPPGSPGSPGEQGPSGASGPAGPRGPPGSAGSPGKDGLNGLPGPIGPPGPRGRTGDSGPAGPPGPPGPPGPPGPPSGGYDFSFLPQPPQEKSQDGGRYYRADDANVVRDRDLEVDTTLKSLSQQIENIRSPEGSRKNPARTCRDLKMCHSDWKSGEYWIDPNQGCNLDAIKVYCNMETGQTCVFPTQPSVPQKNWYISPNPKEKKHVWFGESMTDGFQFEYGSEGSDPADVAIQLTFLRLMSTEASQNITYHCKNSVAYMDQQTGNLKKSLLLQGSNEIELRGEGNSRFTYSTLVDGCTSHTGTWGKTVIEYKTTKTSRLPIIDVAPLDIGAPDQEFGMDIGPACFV
UniProt P02466: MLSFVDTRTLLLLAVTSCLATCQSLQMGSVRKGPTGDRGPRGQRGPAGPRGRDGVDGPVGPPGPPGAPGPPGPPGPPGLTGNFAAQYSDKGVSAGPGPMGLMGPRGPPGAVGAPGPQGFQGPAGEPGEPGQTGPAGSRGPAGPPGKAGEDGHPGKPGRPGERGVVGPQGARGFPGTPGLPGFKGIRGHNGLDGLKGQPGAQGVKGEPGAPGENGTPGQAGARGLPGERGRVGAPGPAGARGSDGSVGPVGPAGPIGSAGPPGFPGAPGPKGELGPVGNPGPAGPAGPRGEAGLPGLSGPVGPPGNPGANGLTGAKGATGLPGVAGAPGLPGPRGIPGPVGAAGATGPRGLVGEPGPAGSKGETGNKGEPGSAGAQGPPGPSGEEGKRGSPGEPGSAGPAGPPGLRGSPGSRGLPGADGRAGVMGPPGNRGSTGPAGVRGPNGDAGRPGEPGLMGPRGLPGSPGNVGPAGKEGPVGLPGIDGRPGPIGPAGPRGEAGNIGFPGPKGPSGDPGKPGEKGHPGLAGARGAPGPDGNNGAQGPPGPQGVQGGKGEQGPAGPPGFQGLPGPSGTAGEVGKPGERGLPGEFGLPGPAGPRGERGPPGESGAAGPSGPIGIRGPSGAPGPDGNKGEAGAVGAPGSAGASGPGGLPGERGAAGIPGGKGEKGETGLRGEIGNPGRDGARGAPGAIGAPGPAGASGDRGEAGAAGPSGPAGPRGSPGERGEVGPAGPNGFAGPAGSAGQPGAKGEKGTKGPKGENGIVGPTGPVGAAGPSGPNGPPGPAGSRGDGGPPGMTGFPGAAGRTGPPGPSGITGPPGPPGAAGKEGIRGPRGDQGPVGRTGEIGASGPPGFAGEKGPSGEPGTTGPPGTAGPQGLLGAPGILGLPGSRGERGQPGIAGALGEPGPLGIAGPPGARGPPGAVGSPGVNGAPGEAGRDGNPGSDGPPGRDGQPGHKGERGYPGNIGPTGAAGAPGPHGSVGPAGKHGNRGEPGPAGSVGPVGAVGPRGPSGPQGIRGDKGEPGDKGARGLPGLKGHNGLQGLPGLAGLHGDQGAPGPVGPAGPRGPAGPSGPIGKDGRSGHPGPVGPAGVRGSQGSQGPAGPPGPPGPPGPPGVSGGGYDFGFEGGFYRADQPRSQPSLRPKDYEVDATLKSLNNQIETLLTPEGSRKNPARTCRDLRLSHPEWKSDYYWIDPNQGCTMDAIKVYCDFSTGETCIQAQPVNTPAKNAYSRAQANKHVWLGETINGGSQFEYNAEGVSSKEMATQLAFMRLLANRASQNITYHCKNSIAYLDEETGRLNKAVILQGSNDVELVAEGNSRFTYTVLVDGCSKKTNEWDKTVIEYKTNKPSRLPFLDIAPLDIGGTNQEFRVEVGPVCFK
UniProt P17301: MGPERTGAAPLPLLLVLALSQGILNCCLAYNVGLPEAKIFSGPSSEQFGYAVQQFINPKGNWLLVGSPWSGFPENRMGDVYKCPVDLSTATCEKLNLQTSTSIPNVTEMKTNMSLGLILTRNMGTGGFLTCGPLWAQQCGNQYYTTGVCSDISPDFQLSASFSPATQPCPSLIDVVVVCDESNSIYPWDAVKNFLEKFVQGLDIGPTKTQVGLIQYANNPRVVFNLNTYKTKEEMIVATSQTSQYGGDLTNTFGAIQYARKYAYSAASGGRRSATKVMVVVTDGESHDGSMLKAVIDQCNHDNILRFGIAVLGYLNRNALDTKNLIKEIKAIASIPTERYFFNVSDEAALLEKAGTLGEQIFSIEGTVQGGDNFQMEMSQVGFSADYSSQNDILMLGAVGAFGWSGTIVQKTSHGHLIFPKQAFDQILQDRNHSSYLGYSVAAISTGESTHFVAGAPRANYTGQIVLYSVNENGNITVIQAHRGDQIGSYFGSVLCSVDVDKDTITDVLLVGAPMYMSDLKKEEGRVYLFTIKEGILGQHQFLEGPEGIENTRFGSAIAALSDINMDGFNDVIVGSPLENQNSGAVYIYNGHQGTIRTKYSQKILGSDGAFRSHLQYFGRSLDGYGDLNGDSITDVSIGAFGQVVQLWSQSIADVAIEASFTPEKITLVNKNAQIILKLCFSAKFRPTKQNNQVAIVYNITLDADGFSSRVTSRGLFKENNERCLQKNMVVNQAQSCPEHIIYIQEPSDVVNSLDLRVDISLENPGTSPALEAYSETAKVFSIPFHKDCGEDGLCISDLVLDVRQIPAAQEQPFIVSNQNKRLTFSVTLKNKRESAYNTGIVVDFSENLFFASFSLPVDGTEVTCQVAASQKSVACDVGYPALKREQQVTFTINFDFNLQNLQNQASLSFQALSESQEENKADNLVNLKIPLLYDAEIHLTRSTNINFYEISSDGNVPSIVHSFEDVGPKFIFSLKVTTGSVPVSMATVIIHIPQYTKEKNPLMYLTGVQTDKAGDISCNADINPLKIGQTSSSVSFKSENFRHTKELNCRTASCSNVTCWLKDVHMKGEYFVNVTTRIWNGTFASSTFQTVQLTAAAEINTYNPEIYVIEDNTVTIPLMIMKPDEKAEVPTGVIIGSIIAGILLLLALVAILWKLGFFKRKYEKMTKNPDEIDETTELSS

Molecular target: Rat tail collagen type I (rat) (UniProt P02454+P02466)
Assay: cell adhesion assay (CAFCA, Centrifugal Assay for Fluorescence-based Cell Adhesion); ligand as substrate in CAFCA miniplates; calcein AM-labelled cells centrifuged onto the substrate, 20 min at 37°C, then centrifuged at 500 rpm; bound cells read by fluorescence; for HaCat cells also with integrin blocking antibodies; only the target purified

α2β1 integrin on HaCat cells (from UniProt P17301 30-1181; P05556 21-798) (receptor)
binding: binds
